# Laboratory results: paper PMC7862700
# Some of the results follow. The source does not settle which construct or isoform was used.
# Target: T1, ELF2 (UniProt Q15723)
# T1 sequence: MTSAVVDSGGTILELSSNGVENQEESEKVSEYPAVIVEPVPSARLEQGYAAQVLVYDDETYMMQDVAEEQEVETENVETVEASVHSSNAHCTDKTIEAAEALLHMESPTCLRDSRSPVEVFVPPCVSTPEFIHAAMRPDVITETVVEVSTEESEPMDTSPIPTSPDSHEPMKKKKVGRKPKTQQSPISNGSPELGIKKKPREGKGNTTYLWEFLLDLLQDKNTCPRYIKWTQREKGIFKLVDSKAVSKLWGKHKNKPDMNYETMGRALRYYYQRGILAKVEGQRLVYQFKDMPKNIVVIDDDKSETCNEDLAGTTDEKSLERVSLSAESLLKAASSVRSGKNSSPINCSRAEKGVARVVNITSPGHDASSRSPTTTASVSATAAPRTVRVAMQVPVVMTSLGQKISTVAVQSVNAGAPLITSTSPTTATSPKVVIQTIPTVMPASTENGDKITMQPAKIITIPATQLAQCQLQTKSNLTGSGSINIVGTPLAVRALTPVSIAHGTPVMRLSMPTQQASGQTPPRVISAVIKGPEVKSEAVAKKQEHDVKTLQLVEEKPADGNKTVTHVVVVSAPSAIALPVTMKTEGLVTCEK
# Assay: DAPPL (digital affinity profiling via proximity ligation, sequencing)
# Conditions: 10 mM Tris-HCl pH 7.5, 50 mM NaCl, 1 mM DTT, 4% glycerol, room temperature, 30 min; GST-TFs on glutathione beads, 16-mer random dsDNA library, 0.1% …; high values mean tight binding; double strand, one strand shown; scale: fold enrichment (6-mer frequency, TF over GST control)
row,Sequence,binding signal
1,TATATC,1.7
2,TCTCTT,1.47
3,ACTTGG,1.15
4,AAGCAT,1.09
5,GTAGAT,0.948
6,AGCATT,1.06
7,AGATCA,0.821
8,CCCCTC,1.23
9,TCGCCC,1.24
10,TCGTCT,1.28
11,GCGAAG,0.856
12,AGCTCG,0.972
13,GATTAG,0.813
14,CTAGAT,1.07
15,GTATCT,1.12
16,CCACTA,1.03
17,CTTGCG,1.33
18,TCCCAG,1.03
19,CTGGTA,1.32
20,AGAACA,1.03

row,Sequence,binding signal
1,ATAAGT,1.03
2,TTGGCT,1.04
3,AAGGAT,1.17
4,GGTAAA,1.01
5,ACATTT,1.47
6,AAACTA,1.29
7,ATAATC,1.07
8,TATATG,1.3
9,TCATAA,0.988
10,CTTTAC,1.32
11,AAATGC,1.31
12,AGCCTA,1.03
13,TCCGCC,1.77
14,TACTGT,1.06
15,TCCTGC,1.8
16,CCCACT,1.36
17,GAAGTA,2.69
18,TTCTAG,1.18
19,ACTATC,1.1
20,TGGATA,1.04

# 2 entries from above, tab-delimited:
row	Sequence	binding signal
1	ATAAGT	1.03
6	AAACTA	1.29
